Measured values as given in PubChem BioAssay AID651803 (National Center for Advancing Translational Sciences (NCATS), 2012).
Hit rate of the full screen: of about 1,200 compounds, fewer than 10 were called active. Calls come from the whole dose curve; as a rule, active = well fitted curve in the direction sought with a large enough effect; inconclusive = small, poorly fitted or top-dose-only effect, or another doubt; inactive = no such curve, though single readings can be large or run the other way. The list shows a part of the results. Residues, ends and D or L forms follow the SMILES beside them.

Protein sequences, listed by entry. Tags and fused reporters are not part of them. Lines headed by an entry give the natural chain unless they say otherwise; changes in a name come on top.
UniProt P11308: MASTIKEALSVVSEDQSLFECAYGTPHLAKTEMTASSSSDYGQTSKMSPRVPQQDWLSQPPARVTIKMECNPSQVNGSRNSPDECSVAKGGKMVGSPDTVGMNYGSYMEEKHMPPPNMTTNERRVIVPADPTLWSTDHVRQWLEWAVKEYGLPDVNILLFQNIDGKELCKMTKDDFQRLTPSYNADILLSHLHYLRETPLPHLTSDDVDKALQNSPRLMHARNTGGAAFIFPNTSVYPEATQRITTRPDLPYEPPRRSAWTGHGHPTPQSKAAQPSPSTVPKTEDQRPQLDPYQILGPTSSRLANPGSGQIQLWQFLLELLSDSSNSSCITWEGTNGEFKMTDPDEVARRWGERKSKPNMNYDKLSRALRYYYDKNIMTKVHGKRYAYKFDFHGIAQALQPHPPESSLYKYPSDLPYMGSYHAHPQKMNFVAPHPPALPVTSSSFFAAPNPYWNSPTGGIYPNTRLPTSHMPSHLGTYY

The molecules below were run against Transcriptional regulator ERG (Homo sapiens) (UniProt P11308) (assay: qHTS for Small Molecule Inhibitors of the ERG Ets/DNA interaction: TR assay against cherry picks). Settings: ERG Ets domain-DNA fluorescence polarization, Texas red probe; at 154 µM (top of the series).
Summary of the method: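 Polarization read sequentially for fluorescein (ex 480/em 535 nm) and Texas red (ex 555/em 632 nm) probes, 5 nM and 100 nM solutions, displaced from His-ERG Ets domain (1 uM solution), pH 7.5 Tris/KCl/EDTA/DTT buffer.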
Note: % of control where 0% means no effect.

Activity change, negative = inhibition, inactive:
C=CCn1c(=O)c2c(nc(-c3ccc(S(=O)(=O)O)cc3)n2C)n(C)c1=O -8.95%, Cc1ccc(C(=O)NCC(=O)NCCCc2ccccc2)s1 -1.86%, CC(=O)Nc1ccc(CCCCc2ccc(NC(C)=O)cc2)cc1 -2.21%, N#Cc1c(N)sc(=S)c2c1CCCCC2 24.2%, COCCNC(=O)C(OC(=O)C1=Cc2ccccc2OC1)C(C)C (stereo not drawn) 5.8%, CN(C)N=Nc1ccc(S(=O)(=O)NC(Cc2ccccc2)C(=O)O)cc1 (stereo not drawn) 0.423%, O=C(C1CCN(Cc2ccc(F)cc2)CC1)N1CCN(C/C=C/c2ccccc2)CC1 -12.7%, COc1ccccc1/C=N\Nc1ccccc1[N+](=O)[O-] 1.57%, Cc1ccc(C(=O)N[C@H](C(=O)Nc2ccc(F)cc2)C(C)C)cc1 0.0324%, COc1cc(CNc2ccc(CNc3ncn[nH]3)cc2)ccc1OCC(=O)NC(C)(C)C 0.0386%, Cc1ccc(S(=O)(=O)N2CCC(C)CC2)c([N+](=O)[O-])c1 -15.2%, Cc1noc(C)c1COC(=O)C1CCN(C(=O)c2ccc(Cl)cc2)CC1 18.3%, COCCNC(=O)/C(C#N)=C/c1c(N2CCN(c3cccc(Cl)c3)CC2)nc2c(C)cccn2c1=O 4.98%, CCn1cc(C(=O)NCc2ccc(Cl)cc2)c(=O)c2cc(S(=O)(=O)N3CCOCC3)ccc21 -3.15%, CCn1c2ccccc2c2cc(NC(=O)COc3cc(C)ccc3C)ccc21 1.75%, CC(OC(=O)c1cc(=O)[nH]c2ccccc12)C(=O)NCc1ccccc1 (stereo not drawn) 13.8%, COc1ccc(OC)c2c1C(=O)c1ccccc1C2=O 63%, COc1ccc(-n2c(=O)c3c4c(sc3n(Cc3ccc(C(C)(C)C)cc3)c2=O)CCC4)c(OC)c1 -10.3%, O=C(Nc1ccccc1Cl)c1ccc(Cl)cc1Cl 3.08%, COc1ccc(NC(=O)COC(=O)C2CC(=O)N(c3ccc(C)cc3)C2)cc1 (stereo not drawn) 2.46%, COCCCNC(=O)c1cc2cc([N+](=O)[O-])cc(OC)c2oc1=O 2.21%, Cc1cc(C)nc(N2CCN(c3nnnn3-c3ccccc3)CC2)n1 -4.73%, C#C[C@]1(O)CC[C@H]2[C@@H]3CCC4=CC(=O)CC[C@@H]4[C@H]3CC[C@@]21CC 4.2%, COc1cc(/C=C/C(=O)OC(C)C(=O)c2ccccc2)cc(OC)c1OC (stereo not drawn) 10.8%, O=C(NCC(=O)N1CCCC(C(F)(F)F)C1)c1cccs1 (stereo not drawn) -10.4%, Nc1c(C(=O)NCc2ccc(Cl)cc2Cl)nnn1Cc1ccc(Br)cc1 -6.43%, COc1ccc(OCC(=O)Nc2cc(-c3ccccc3F)nn2-c2ccccc2)cc1 2.5%, O=C(COc1ccc(-c2ccccc2)cc1)N1CCN(C(=O)c2cccs2)CC1 -5.14%, CCOC(=O)c1cn(-c2nc(-c3ccc(Cl)c(Cl)c3)cs2)c2c(F)c(N3CCOCC3)c(F)cc2c1=O -8.86%, Cc1cccc(Cc2c(C)nc3nc(SCc4ccccc4Cl)nn3c2C)c1 -6.79%, O=C(NCCN1CCN(c2ccccc2)CC1)c1cccc(Br)c1 -10.5%, Cn1c(=O)oc2cc(S(=O)(=O)N3CCN(c4ccccc4F)CC3)ccc21 6.62%, COc1ccccc1C(C)NC(=O)c1cc(S(=O)(=O)N2CCCCC2)ccc1C (stereo not drawn) -4.33%, Cc1ccnc(NC(=O)c2cccc(S(=O)(=O)Nc3ccc(C)cc3C)c2)c1 6.64%, CCOC(=O)c1c(C)[nH]c(C(=O)COC(=O)CNC(=O)c2ccc(Cl)cc2Cl)c1C 15.3%, CC(=O)C(c1ccccc1)C(c1ccccc1)C(C)[N+](=O)[O-] (stereo not drawn) 6.42%, COC(=O)[C@@]1(C)[C@H]2C(=O)N(Cc3ccccc3)C(=O)[C@H]2[C@H]2CN(C)C(=NC3CCCCC3)N21 5.6%, COc1ccc(OCCN2CCN(C(=O)c3ccc(OC(F)F)c(OC)c3)CC2)cc1 0.86%, CCNc1nc(NC(C)(C)C)nc(N2CCCCC2)n1 -0.306%, CCc1ccnc(NC(=O)Nc2ccc(OCc3ccccc3)cc2)c1 -11%, CCc1cccc(NC(=O)C2CCCN(S(=O)(=O)c3ccc4[nH]c(=O)ccc4c3)C2)c1 (stereo not drawn) 0.67%, Cc1ccc(C)c(S(=O)(=O)N2CC(=O)N(CCc3ccccc3)C(=O)C2)c1 -0.11%, Cc1[nH]c(=O)[nH]c(=O)c1/C=N/NC(=O)[C@H](C)N 2.01%, COc1ccc(OC)c(NS(=O)(=O)c2cc3c4c(c2)CCN4C(=O)CC3)c1 -1.42%, CCOC(=O)C1=NN(C(=O)COc2ccccc2)C(O)(c2ccc(Cl)cc2)C1 (stereo not drawn) -7.48%, Cc1cc(C)nc(NC(=O)c2ccc(Cl)cc2Cl)n1 9.79%, O=C(NC(=S)Nc1cccnc1)c1cc2ccccc2o1 0.466%, O=C(Nc1ccc2c(c1)OCO2)N1CCN(c2ccccc2)CC1 -6.55%, O=C(Nc1ccccc1Br)c1ccccc1-c1ccccc1 6.9%, O=C(CSc1nnc(-c2cccnc2)o1)Nc1cccc(Cl)c1 -10.9%, CC(C)(C)c1ccc(OCC(=O)Nc2cccc(S(=O)(=O)NC3=NCCCCC3)c2)cc1 4.64%, Cc1cccc(OCC(=O)N(Cc2ccc(C(C)(C)C)cc2)Cc2ccco2)c1 -18.1%, O=C(CSc1ccccc1)NCc1ccc(F)cc1 -2.97%, CC(=O)OCCn1c2nc(=O)[nH]c(=O)c-2nc2cc(C)c(C)cc21 54.3%, Cc1ccc2nc3c(c(C(=O)OC4CCOC4=O)c2c1)CCCC3 (stereo not drawn) 5.65%, Cc1ccc2cccc(OCCCOc3ccccc3F)c2n1 -6.41%, CCCCOC(=O)c1ccc(N)cc1 21%, CCCCNc1cc(F)nc(N)n1 1.22%, COc1ccc(Cc2nnc(Nc3ccccc3)s2)cc1Br -1.2%, O=C(Cn1cc2c(n1)CCCC2)NCc1ccccn1 4.97%, Clc1cccc(OCCCN2CCCC2)c1Cl 4.18%, CC(C)C(C(=O)O)N1CCS(=O)(=O)CC1 (stereo not drawn) 4.35%, O=C(O)COc1ccc(F)cc1Br 4.26%, OCCCC1CCCCN1Cc1nc(Cc2ccccc2Cl)no1 (stereo not drawn) -11%, O=C(CC(c1ccccc1)c1cc(Cl)ccc1O)NCCCN1CCOCC1 (stereo not drawn) 4.28%, O=C(NC(c1ccccc1)C(Cl)Cl)c1ccccc1 (stereo not drawn) -7.15%, Cc1cnc(CNC(=O)CC2C(=O)NCCN2Cc2ccccc2C(F)(F)F)cn1 (stereo not drawn) 5.3%, CCCCSc1cc(=O)n(-c2ccccc2)nc1C(=O)OCC -3.95%, CCCCOc1ccc(C(=O)N2CC(=O)Nc3ccc(Br)cc3C2c2ccc(F)cc2)cc1 (stereo not drawn) -13.8%, Clc1ccc(SCc2nc3ccccc3[nH]2)cc1 -2.08%, CN(C)c1nc(C=C(C#N)C#N)c(Cl)n1-c1ccc(F)cc1 4.65%, COC(=O)c1ccccc1SC(CC(=O)c1ccccc1)c1ccc(F)cc1 (stereo not drawn) -8.26%, Cc1occc1C(=O)NCCc1ccc(Cl)cc1 -3.8%, O=C(CN1C(=O)NC(c2ccc(F)cc2)C1=O)Nc1ccc2c(c1)OCCO2 (stereo not drawn) -0.206%, Cc1cccc(-n2c(-c3ccccc3)c[nH]c2=S)c1C 6.31%, COc1ccc(S(=O)(=O)NCCNC(=O)N2CCOCC2)cc1 3.17%, COc1ccccc1NC(=O)Cn1c(=O)n(CCC(=O)NCC2CCCO2)c(=O)c2cc(OC)c(OC)cc21 (stereo not drawn) 0.0258%, Cn1c(=O)c2[nH]cnc2n(C)c1=O 1.82%, O=[N+]([O-])c1ccc(Cc2ccc([N+](=O)[O-])cc2)cc1 -3.11%, CC(=O)NC(Cc1ccccc1)C(=O)NC(Cc1ccccc1)C(=O)O (stereo not drawn) (Ac-Phe-Phe-OH; configuration not given here) 8.39%, CC(CN1CCCCC1)NC(=O)c1cccs1 (stereo not drawn) -5.25%, CN(C(=O)COC(=O)c1cc(S(=O)(=O)N2CCOCC2)ccc1F)C1CCS(=O)(=O)C1 (stereo not drawn) 1.52%, CCOC(=O)NCc1ccc2c(c1)cc(C)n2C 17.6%, Cc1cccc(NC(=O)CN2C(=O)CNC2=O)c1 4.65%, Cc1cccc(C(=O)N[C@H](C(=O)Nc2ccc(C)c(S(=O)(=O)N(C)C)c2)C(C)C)c1 1.21%, O=[N+]([O-])c1cccnc1Sc1ccccc1Cl 4.29%, CC(=O)Nc1ccc(S(=O)(=O)NCCC(=O)OCC(=O)c2cc(C)ccc2C)cc1 -0.938%, COc1ccc(S(=O)(=O)N2CCOCC2)cc1NC(=O)CSc1nnc2n1CCCCC2 2.84%, C/C(=N\Nc1ccc(C#N)cc1[N+](=O)[O-])c1ccc(C)o1 0.206%, COc1ccc(NC(=O)NCc2ccccn2)c(OC)c1 -2.62%, CCOC(=O)CSc1nc2ccc(NC(=O)c3ccc(F)cc3)cc2s1 4.85%, COc1ccc(OC)c(NC(=O)Cn2cnc3sc(C)c(S(=O)(=O)N4CCN(c5ccccc5OC)CC4)c3c2=O)c1 -7.07%, COC(=O)c1ccc2c(=O)n(CCN3CCOCC3)c(SCC(=O)Nc3ccc(OC)cc3OC)nc2c1 7.16%
